According to article PMC8217770:
These are yes or no findings as the source states them, for the method shown. In cells and extracts the contact can be indirect. Some binding calls cover weakened binding; strength is not graded here. For some assays here: Sequences can lack the tags named with a protein.

Sequences of proteins named here, by UniProt entry; tags and fusion partners are left off.
UniProt P14618: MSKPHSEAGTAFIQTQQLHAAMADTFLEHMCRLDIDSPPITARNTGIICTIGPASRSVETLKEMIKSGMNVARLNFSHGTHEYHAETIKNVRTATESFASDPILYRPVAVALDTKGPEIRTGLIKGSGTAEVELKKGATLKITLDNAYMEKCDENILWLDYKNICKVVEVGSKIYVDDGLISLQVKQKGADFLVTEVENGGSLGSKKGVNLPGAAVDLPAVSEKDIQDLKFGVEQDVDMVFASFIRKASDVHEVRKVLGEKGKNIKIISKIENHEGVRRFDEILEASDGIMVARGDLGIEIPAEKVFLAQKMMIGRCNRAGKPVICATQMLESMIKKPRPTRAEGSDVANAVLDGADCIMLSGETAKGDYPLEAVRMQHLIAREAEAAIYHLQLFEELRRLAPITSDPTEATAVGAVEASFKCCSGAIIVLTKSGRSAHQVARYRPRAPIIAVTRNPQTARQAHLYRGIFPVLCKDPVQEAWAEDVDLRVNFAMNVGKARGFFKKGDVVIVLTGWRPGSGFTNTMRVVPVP

Assays:
[1] = target: T1, His-tagged NEK2 (NIMA-related kinase 2), expressed in 293T (human) (UniProt P51955); assay: co-IP; 293T cells transfected with His-NEK2 and Flag-PKM2 plasmids, harvested after 48 hours; anti-Flag M2 magnetic beads and 6X His antibody; western blot
T1 sequence: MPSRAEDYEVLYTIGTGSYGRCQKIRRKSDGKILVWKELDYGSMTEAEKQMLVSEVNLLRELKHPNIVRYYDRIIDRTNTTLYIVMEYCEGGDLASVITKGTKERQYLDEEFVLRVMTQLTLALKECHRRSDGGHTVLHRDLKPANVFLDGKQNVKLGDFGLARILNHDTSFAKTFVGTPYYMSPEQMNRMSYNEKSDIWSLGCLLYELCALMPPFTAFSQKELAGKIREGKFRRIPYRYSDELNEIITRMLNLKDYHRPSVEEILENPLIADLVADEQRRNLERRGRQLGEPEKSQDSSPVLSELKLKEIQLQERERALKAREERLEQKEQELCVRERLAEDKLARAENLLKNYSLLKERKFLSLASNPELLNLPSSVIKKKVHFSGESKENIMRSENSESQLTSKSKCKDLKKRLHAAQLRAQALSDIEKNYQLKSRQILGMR

[2] = target: T2, NEK2 (NIMA-related kinase 2), endogenous (human (endogenous in OCI-Ly3 and SU-DHL-4)) (UniProt P51955); assay: co-IP; endogenous IP from OCI-Ly3 and SU-DHL-4 lysates with antibodies against NEK2 or PKM2, normal mouse IgG as negative control; protein A/G PLUS agarose; western blot
T2 sequence: T1 sequence

Row | Substance | binding [1] | binding [2]
1 | Flag-tagged PKM2 (from UniProt P14618 1-531) (enzyme) | binds | 
2 | PKM2, endogenous (from UniProt P14618 1-531) (enzyme) |  | binds
